Measured values published in the supplement of paper PMC10849652.
This is one part of the list.

By UniProt entry, the sequences of proteins in these tests, tags left out. Where a name states a change or a piece, a line headed by the entry shows the natural chain unless it says otherwise.
UniProt O75923: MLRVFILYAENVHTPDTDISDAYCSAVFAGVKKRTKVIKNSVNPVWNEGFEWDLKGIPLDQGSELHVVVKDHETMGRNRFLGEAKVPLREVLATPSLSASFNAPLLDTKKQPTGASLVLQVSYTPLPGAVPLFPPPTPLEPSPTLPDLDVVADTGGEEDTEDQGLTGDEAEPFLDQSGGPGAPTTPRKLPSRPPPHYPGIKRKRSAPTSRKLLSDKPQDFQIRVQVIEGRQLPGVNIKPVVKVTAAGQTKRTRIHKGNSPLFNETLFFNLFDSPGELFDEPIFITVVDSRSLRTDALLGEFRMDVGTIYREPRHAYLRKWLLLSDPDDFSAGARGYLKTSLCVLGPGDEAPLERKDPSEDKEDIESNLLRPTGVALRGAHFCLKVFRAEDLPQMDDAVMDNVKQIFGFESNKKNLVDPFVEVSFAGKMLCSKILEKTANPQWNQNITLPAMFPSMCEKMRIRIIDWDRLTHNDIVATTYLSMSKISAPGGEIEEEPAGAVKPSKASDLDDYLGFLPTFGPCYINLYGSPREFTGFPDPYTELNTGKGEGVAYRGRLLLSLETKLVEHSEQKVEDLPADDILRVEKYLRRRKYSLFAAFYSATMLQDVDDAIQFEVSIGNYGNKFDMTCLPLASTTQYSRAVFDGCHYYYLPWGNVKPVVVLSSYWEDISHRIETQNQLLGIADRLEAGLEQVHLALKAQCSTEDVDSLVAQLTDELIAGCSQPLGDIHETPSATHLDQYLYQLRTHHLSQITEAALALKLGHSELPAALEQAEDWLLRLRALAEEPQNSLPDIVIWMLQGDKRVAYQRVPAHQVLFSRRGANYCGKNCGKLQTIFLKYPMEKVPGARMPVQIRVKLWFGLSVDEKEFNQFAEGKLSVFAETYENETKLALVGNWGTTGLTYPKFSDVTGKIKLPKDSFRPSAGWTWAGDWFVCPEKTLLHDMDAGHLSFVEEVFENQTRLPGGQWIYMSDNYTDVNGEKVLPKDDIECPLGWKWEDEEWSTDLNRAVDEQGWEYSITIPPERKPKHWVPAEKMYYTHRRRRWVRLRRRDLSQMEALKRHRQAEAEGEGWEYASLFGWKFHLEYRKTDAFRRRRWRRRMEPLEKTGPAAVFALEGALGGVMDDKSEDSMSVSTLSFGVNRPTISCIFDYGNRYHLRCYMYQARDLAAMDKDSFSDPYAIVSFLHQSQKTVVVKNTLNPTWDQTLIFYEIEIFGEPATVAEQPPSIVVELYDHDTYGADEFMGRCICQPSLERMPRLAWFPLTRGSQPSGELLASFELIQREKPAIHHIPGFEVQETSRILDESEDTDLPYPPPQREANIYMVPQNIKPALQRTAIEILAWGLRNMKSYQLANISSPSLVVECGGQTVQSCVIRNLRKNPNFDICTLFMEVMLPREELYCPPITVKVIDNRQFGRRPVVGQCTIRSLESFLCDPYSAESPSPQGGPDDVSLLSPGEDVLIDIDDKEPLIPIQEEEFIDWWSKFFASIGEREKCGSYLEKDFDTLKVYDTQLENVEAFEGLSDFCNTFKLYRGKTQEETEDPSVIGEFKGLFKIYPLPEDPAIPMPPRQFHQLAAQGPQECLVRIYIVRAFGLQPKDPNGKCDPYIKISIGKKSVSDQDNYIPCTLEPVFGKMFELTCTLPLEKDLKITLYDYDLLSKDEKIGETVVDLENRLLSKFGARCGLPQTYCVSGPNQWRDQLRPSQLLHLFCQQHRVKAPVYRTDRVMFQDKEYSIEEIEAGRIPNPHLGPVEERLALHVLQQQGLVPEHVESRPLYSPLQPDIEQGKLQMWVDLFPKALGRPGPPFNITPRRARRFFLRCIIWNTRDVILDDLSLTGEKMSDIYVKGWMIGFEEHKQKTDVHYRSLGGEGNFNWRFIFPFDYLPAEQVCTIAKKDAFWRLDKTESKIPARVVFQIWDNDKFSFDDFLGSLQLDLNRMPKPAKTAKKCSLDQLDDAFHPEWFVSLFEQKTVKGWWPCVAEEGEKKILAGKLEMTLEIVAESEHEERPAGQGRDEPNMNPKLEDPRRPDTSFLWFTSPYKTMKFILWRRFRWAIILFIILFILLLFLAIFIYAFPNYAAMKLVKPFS
UniProt Q96F86: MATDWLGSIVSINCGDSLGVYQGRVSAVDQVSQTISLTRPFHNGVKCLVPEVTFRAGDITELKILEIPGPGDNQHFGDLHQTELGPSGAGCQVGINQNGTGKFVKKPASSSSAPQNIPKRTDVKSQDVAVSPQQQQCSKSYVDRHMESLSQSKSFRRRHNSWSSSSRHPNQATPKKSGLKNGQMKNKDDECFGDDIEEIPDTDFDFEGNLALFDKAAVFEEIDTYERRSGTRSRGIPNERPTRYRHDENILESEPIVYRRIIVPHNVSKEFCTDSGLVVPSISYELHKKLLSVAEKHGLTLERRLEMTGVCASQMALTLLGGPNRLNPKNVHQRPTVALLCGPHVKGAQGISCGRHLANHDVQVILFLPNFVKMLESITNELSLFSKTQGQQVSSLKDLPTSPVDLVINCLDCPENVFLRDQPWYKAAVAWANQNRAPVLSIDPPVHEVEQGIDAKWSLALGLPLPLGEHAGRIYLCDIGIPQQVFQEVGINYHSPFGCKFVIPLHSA
UniProt O43237, whole entry, looked up: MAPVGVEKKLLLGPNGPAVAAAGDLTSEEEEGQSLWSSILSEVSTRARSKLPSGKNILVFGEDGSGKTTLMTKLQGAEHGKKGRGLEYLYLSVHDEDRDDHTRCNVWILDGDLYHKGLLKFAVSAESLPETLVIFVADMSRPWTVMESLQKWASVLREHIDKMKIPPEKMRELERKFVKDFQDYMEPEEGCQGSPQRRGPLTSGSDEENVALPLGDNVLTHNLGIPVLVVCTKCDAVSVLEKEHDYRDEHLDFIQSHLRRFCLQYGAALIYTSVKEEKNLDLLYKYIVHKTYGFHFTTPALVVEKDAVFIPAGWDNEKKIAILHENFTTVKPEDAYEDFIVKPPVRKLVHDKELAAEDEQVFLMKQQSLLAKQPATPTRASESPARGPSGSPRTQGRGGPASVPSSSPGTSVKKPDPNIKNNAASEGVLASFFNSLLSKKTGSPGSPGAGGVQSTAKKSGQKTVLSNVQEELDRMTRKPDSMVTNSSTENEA
UniProt Q9NZN4: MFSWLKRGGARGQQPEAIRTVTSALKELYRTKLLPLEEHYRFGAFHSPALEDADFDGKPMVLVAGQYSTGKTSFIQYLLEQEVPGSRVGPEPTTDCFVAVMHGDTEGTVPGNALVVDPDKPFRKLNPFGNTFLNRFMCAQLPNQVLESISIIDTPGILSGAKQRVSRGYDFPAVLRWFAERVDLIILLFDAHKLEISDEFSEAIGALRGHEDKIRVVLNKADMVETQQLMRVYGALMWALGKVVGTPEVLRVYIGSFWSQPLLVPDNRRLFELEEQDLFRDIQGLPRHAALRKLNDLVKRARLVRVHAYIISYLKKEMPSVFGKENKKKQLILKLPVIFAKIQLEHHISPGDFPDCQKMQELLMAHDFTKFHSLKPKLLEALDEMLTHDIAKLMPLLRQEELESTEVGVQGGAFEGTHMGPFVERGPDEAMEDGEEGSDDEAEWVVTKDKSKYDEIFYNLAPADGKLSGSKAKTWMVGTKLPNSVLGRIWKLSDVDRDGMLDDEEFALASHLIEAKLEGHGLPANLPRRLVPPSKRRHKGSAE
UniProt Q96G46: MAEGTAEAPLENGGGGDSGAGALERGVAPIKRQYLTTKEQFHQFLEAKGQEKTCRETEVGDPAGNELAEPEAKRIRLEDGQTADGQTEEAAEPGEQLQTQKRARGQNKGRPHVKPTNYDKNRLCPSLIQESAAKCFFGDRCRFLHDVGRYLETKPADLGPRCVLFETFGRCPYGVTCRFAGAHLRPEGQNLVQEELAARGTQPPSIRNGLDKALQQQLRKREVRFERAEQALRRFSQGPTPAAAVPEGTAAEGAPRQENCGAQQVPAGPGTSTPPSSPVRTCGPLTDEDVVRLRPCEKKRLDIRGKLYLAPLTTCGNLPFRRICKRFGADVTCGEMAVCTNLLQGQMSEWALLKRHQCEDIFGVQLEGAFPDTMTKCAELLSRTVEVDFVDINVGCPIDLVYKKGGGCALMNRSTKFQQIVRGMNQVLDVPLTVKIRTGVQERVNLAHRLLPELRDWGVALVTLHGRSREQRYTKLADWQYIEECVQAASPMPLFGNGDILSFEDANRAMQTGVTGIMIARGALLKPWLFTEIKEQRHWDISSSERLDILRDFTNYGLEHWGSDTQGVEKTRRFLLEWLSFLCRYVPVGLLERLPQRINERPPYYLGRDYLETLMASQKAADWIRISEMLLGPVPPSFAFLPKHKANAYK
UniProt Q86UW9: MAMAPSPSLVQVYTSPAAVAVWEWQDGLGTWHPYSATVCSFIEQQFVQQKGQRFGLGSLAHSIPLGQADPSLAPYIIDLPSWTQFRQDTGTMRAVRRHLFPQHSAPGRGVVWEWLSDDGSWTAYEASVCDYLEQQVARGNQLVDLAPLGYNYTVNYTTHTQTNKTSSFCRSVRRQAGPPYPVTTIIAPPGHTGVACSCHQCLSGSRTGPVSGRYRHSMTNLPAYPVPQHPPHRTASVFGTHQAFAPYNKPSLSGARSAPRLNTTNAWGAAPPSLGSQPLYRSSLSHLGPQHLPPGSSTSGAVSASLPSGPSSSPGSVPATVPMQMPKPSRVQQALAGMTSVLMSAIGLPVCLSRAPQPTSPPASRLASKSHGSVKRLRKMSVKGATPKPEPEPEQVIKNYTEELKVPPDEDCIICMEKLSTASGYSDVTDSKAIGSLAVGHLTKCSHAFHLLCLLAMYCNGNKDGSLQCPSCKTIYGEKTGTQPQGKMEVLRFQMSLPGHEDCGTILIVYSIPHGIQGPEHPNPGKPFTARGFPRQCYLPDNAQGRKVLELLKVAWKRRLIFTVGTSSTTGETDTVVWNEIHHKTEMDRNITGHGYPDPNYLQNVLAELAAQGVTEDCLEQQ
UniProt Q96KS0, whole entry, looked up: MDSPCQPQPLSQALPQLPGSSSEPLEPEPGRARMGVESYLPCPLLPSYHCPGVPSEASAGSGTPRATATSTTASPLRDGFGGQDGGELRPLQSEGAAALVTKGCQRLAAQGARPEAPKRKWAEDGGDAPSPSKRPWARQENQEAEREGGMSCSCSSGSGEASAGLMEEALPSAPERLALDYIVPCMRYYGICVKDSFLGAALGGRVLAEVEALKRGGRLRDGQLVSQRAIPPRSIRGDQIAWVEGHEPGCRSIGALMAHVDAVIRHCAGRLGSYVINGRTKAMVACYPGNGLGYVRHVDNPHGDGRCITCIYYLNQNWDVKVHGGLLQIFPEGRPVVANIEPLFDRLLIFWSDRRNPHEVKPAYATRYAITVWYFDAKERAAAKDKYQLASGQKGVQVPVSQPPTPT
UniProt Q96FX2: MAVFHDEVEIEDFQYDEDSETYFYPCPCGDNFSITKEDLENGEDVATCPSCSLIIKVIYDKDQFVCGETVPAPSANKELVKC

Columns and labels:
Assay in all cases: log2 fold change, soluble protein after heating vs DMSO (PISA); higher = thermal stabilisation; K562 lysate, 10 uM; active = over 0.2 and 3.5 SD of the protein, either way, in both replicates (recomputed)
[1] = compound: CS(=O)(=O)CCNCc1ccc(-c2ccc3ncnc(Nc4ccc(OCc5cccc(F)c5)c(Cl)c4)c3c2)o1 [lapatinib]
How it was run: (§1)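 To prepare the extract, K562 pellets were dounce-homogenised in PBS pH 7.4 with 1 mM MgCl2, giving crude material at 1 mg/mL protein. This was treated with 10 μM compound for 30 min, then heated in aliquots for 3 min over 48°C-58°C before pooling and addition of NP-40 to 0.5% at 4°C. Centrifugation at 21,000xg for 90 min left soluble protein in the supernatant, which TMTpro 16plex LC-MS/MS quantified with equalised channel sums. Results are log-two fold changes in thermal stability compared with solvent controls, from duplicates.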

[2] = compound: CS(=O)(=O)N1CCN(Cc2cc3nc(-c4cccc5[nH]ncc45)nc(N4CCOCC4)c3s2)CC1 [pictilisib]
How it was run: as §1

[3] = compound: C[C@@H](Oc1cc(-c2cnn(C3CCNCC3)c2)cnc1N)c1c(Cl)ccc(F)c1Cl [crizotinib]
How it was run: as §1

[4] = compound: C[C@H](C1=CC=C(C=C1)C(=O)NC2=C3C=CNC3=NC=C2)N
How it was run: as §1

[5] = compound: C[C@H](Nc1ncnc2nc[nH]c12)c1cc2cccc(Cl)c2c(=O)n1-c1ccccc1 [duvelisib]
How it was run: as §1

[6] = compound: Cc1cc(Nc2cc(CN3CCOCC3)c3nc(C)c(Cc4ccc(Cl)cc4F)n3n2)n[nH]1 [gandotinib]
How it was run: as §1

[7] = compound: Cc1cc(Nc2cc(N3CCN(C)CC3)nc(Sc3ccc(NC(=O)C4CC4)cc3)n2)n[nH]1 [tozasertib]
How it was run: as §1

[8] = compound: Cc1ccc(-n2nc(C(C)(C)C)cc2NC(=O)Nc2ccc(OCCN3CCOCC3)c3ccccc23)cc1 [doramapimod]
How it was run: as §1

[9] = compound: Cc1ccc(NC(=O)c2ccc(CN3CC[C@H](N(C)C)C3)c(C(F)(F)F)c2)cc1Nc1nccc(-c2cncnc2)n1 [bafetinib]
How it was run: as §1

[10] = compound: Cc1cccc(CC(=O)N2CCc3c2ccc(-c2cn(C)c4ncnc(N)c24)c3F)n1
How it was run: as §1

[11] = compound: Cc1nc(Nc2ncc(C(=O)Nc3c(C)cccc3Cl)s2)cc(N2CCN(CCO)CC2)n1 [dasatinib]
How it was run: as §1

[12] = compound: Cn1cc(-c2ccc3c(c2)CCN3C(=O)Cc2cccc(C(F)(F)F)c2)c2c(N)ncnc21
How it was run: as §1

[13] = compound: Cn1cc(CNCC2CCN(c3ncc(C(=O)NO)cn3)CC2)c2ccccc21 [quisinostat]
How it was run: as §1

[14] = compound: NC(=O)Nc1cc(-c2cccc(F)c2)sc1C(=O)N[C@H]1CCCNC1
How it was run: as §1

[15] = compound: NC(=O)c1cnc(N[C@@H]2CCCC[C@@H]2N)nc1Nc1cccc(-n2nccn2)c1
How it was run: as §1

[16] = compound: NC1(c2ccc(-c3nc4ccn5c(=O)[nH]nc5c4cc3-c3ccccc3)cc2)CCC1
How it was run: as §1

[17] = compound: Cc1cn(-c2cc(NC(=O)c3ccc(C)c(Nc4nccc(-c5cccnc5)n4)c3)cc(C(F)(F)F)c2)cn1 [nilotinib]
How it was run: as §1

[18] = compound: Cc1nc(Nc2n[nH]c3c2CN(C(=O)N[C@H](CN(C)C)c2ccccc2)C3(C)C)c2sccc2n1
How it was run: as §1

[19] = compound: Cc1ncc(-c2ccnc(Nc3ccc(S(C)(=O)=O)cc3)n2)n1C(C)C
How it was run: as §1

[20] = compound: Cn1cncc1[C@@](N)(c1ccc(Cl)cc1)c1ccc2c(c1)c(-c1cccc(Cl)c1)cc(=O)n2C [tipifarnib]
How it was run: as §1

Measured: log2 fold change

DYSF isoform 13 (UniProt O75923)
inactive: [1] -0.042 | [2] -0.089 | [3] -0.081 | [4] -0.102 | [5] -0.06 | [6] 0.029 | [7] -0.113 | [8] 0.094 | [9] -0.295 | [10] 0.123 | [11] 0.067 | [12] -0.05 | [13] -0.057 | [14] -0.015 | [15] 0.001 | [16] -0.1

EDC3 (UniProt Q96F86)
inactive: [1] -0.007 | [2] -0.034 | [3] -0.012 | [4] -0.021 | [5] 0.014 | [6] 0.032 | [7] -0.007 | [8] 0.024 | [9] -0.008 | [10] -0.003 | [17] 0.045 | [18] 0.016 | [11] -0.022 | [19] -0.031 | [12] 0.004 | [13] -0.006 | [20] -0.069 | [14] -0.019 | [15] -0.014 | [16] 0.017

DYNC1LI2 (UniProt O43237)
inactive: [1] -0.027 | [2] 0.02 | [3] -0.123 | [4] -0.022 | [5] 0.074 | [6] -0.017 | [7] -0.048 | [8] 0.059 | [9] -0.043 | [10] 0.019 | [17] -0.022 | [18] 0.074 | [11] -0.011 | [19] 0.057 | [12] 0.005 | [13] -0.198 | [20] -0.009 | [14] 0.034 | [15] 0.016 | [16] -0.011

EHD2 (UniProt Q9NZN4)
inactive: [1] -0.047 | [2] -0.052 | [3] -0.033 | [4] 0.004 | [5] 0.026 | [6] -0.117 | [7] -0.004 | [8] 0.02 | [9] -0.063 | [10] 0.017 | [17] 0.007 | [18] -0.02 | [11] -0.018 | [19] 0.019 | [12] -0.084 | [13] -0.074 | [20] -0.047 | [14] 0.09 | [15] 0.029 | [16] -0.042

DUS3L (UniProt Q96G46)
inactive: [1] -0.009 | [2] -0.02 | [3] -0.027 | [4] 0.202 | [5] -0.022 | [6] -0.081 | [7] 0.009 | [8] -0.018 | [9] 0.093 | [10] -0.097 | [17] 0.008 | [18] -0.022 | [11] -0.019 | [19] -0.014 | [12] 0.004 | [13] -0.098 | [20] -0.017 | [14] 0.026 | [15] 0 | [16] -0.021

DTX2 (UniProt Q86UW9)
inactive: [1] 0.05 | [2] -0.02 | [3] -0.098 | [4] 0.012 | [5] -0.166 | [6] -0.059 | [8] 0.186 | [9] 0.009 | [10] -0.039 | [17] -0.053 | [18] -0.002 | [11] 0.007 | [19] -0.057 | [12] 0.042 | [13] -0.115 | [20] 0.051 | [14] -0.055 | [15] -0.023 | [16] 0.041

EGLN2 (UniProt Q96KS0)
inactive: [3] 0.258 | [4] 0.252 | [6] -0.117 | [7] 0.229 | [8] 0.026 | [10] -0.068 | [13] 0.103 | [14] -0.17

DPH3 (UniProt Q96FX2)
inactive: [2] -0.013 | [3] -0.041 | [4] -0.092 | [5] 0.029 | [6] -0.105 | [7] 0.025 | [8] -0.024 | [9] -0.04 | [10] -0.137 | [11] -0.131 | [12] -0.17 | [13] -0.021 | [14] -0.003
